Values scatter widely in this assay.
B1: human tRNA-Pro; a variant is named by its letters at N, in order (parent)
chain: GGCTCGTTGGTCTAGNGGTATGATTCTCGCTTAGGGTGCGAGAGGTCCCGGGTTCNNATCCCGGACGAGCCC

Variants of: B1
Experiment: tRNA 5' processing efficiency (processed reads / all reads, maximum-likelihood estimate) (fraction); higher = more efficient 5' processing
Conditions: HEK293T; construct: CMV Pol-II promoter ((+)CMV library, decapped)

tRNA 5' processing efficiency, 0.29:
GAA G9T A20T C55A
GAA T8A A14C A58T
GAG T54A
GAA T8G A20T
AGA T8G G17T T19G T53G C55G
AAA T19G A58T

tRNA 5' processing efficiency, 0.33:
CTA G9A T53A T59A
GAA T8A G17T G18A A58G
GAA A14T T54A A58C
CGA A14G G18T C55T
GAA T8A A14G G17A G18C T53G T54G
GCT A14G G18C C55T
AAA G15C
GAA G17C T19G
GAA T8G G18C
GAA G17A T54A A58T
AAA A20C T59A
GAA T53C C55A
GAT G15A T53A C55A
TAA A14C G17T T53G A58T
GCA G9C T19A C55A
GAA T8C G9A T54C C55T A58G
AAA G15C T54C C55G T59A
GAA G17T A20T C55G
GTA G15T T53A T54C
GGA G9T A14C G17T T59C
GCA A20G
CAA G9A G15T A58G T59A
GAA G17A A58G
TAA G15T G17A
GAA T8G G9T G17T T53A
AAA T53A T54C

tRNA 5' processing efficiency, 0.08:
GAA G9A G17T A20C

tRNA 5' processing efficiency, 0.7:
TAA A20C

tRNA 5' processing efficiency, 0.25:
GCA C55A A58G
GAA G18A T19C A20G A58C
TAA G15T T19G
GAA G9C A14C A20G T53G C55T T59A
GCA A14C T54G A58G
GAA G9C A14T G15A T54A C55T
GCA T54A C55T A58C
GAC A20C C55T
CAA G9T G17A T19A
GAA G15C T54G A58T
GTT G51A A58C
GTT T54C
GAT A14T T19C A58C
GAA G15T T19A T54C
GAA G15A G17C T54A A58T
GAT T19C C55T
GAA T8A A14G T53A
GAT T8G A20T C55A
GAA G9C A14C G17A G18C T19C A58C T59A
GAA G15A T53C C55T
GTA G17C T19A A20G C55G
GAA A14G G15T A20T T54A
TGA C55T T59C
CAG T8A G15C
GCA G18T A58T
CAT G17A
GTC A14G C55T
CAA T54G
GAT G18T C55T
GAT A14C A20C T54C A58G
GAA A14G G17C T54G C55A
GTA G17C A20G C55A
GAA G18C T53A T59C
GGA G17T T53C C55G T59C
GGA G9A A14G G15C C55A A58G
GTA T19G T54A C55G
AAA T8G G9A T54G T59G
GAG T19G C55G T59C
ACA T19A T53G
AAA T8G A14G G17A T19A A20G T53A A58C

tRNA 5' processing efficiency, 0.69:
GTG G18A T54A C55T

tRNA 5' processing efficiency, 0.14:
ACA G9T G15T T19C A58T
AGA T19A
GAA A14G G17T T53A
GAA G18A T19A A58T
GAC T8A A14G G18T T19G A20T
TAA T8C T19G A20T T54G

tRNA 5' processing efficiency, 0.73:
GAA A14T T19C T54C T59G

tRNA 5' processing efficiency, 0.18:
GAT T8A G9T G17A G18C T54G

tRNA 5' processing efficiency, 0.2:
GAA G9C G15T T54C A58G
GAG T19G T53A C55T
GAA G18A T53C
GAA G9A T54G T59C
AAA A14C G17C G18C T19A T54C A58T
GAA G9A G15C G17A T54C
GAA G9T G15T C55G
AAA G17T C55G
GAA G9T G17T C55G A58G
GAA T8A A14G T19G
GCA A14G G18A T54G C55T
CAA G9T G18T
GAA G9C G18C T19A T53A T54G T59A
GAA A14G T19C A20T
GGA G15A T54G
GAC A20T T53G C55G
GAA G18T C55G T59C
GTA G15A A20G T54G
GAA T8G G9A T19G
GGA A20C C55G
GAA T8C C55G A58C
GAA T8C G18A T53C T54G
GAA G15T A58G T59C
GAA T8C C55G
GAA T8A A20T

tRNA 5' processing efficiency, 0.07:
CGA G9T A14C G17T C55G
GAA G9C G15T A58T

tRNA 5' processing efficiency, 0.06:
TAA G15T T54A A58T T59G

tRNA 5' processing efficiency, 0.22:
GAA T53G C55A

tRNA 5' processing efficiency, 0.5:
GAA G15C T19C
CAG G18A T19C C55T T59G
CAT T54G
CAC G9T G15A G17T T53G T54C C55G
GAA T53G T54G A58T
GAG G17T G18T A20T T53C
GAA G15T G18T A20G
AAA A14G G18T
AAA A14G T53G C55T
GAT G15A T54A C55T
GAA A14C T54G T59G
GAA T8G A14C T59C
GAA G9C G17C G18T T19A A20T T54A C55A
GTC A20T A58T T59A
GAA G9C T54A
GAA T8C G17A A58G
GGA G9C T53G

tRNA 5' processing efficiency, 0.09:
GAG A14G G17T A58T

tRNA 5' processing efficiency, 0.34:
GAA G17C C55A

tRNA 5' processing efficiency, 0.11:
GAA T53G C55G A58C
GTT G18C A20T

tRNA 5' processing efficiency, 0.38:
GAG C55A

tRNA 5' processing efficiency, 0.17:
GAA T8C A14T G15T G17T G18A T53A T59C
GAA G9T G18T T53G
GAG T8C G9A A14T A58T T59A
GAG G9A A58G
GAA G15A G17C T54G
GAA A14C G18T T19A T59A
GAA A14T G18C T54A T59G
AAG A14G T19C T53C C55T T59G
GAA T8C A14T G18A C55A A58T
CAT C55A
AAA A20G T54G T59A
GAA G9A G17T G18C A20G T59A
GAA A14T G18T A20C A58T
GGA A14G T19C A20T
TAA A14C G15C C55T

Reprinted at random: 4 entries already listed
tRNA 5' processing efficiency, 0.17:
AAA A20G T54G T59A
GAA G9T G18T T53G
GAA G9A G17T G18C A20G T59A
GGA A14G T19C A20T

Next part.

tRNA 5' processing efficiency, 0.1:
ATA G17T T59C
GAA G9A G18C T19G

tRNA 5' processing efficiency, 0.05:
GTA G9A A14C

tRNA 5' processing efficiency, 0.26:
GAT A58G T59A

tRNA 5' processing efficiency, 0.4:
GAT G18T A20T
GAA G18T A20C T54A A58T
GAA T8C G9T G17C T54C C55G
GAA T8G C55G
GAT G2A G18A A20G C55A
GGA A14T G18T T53C T59A
GTA G15T G17A G18A C55A
GGA G15A T59G
GGG G9T A14T C55A

At a glance, some entries already given.
tRNA 5' processing efficiency, 0.4:
GAA T8G C55G
GAT G2A G18A A20G C55A
GGA A14T G18T T53C T59A
GTA G15T G17A G18A C55A

Next part.

tRNA 5' processing efficiency, 0.78:
GAA G17A G18T A58T

tRNA 5' processing efficiency, 0.13:
CAC T8G G17A A20G
GAA T8C T19A

tRNA 5' processing efficiency, 0.57:
GAT C55A

tRNA 5' processing efficiency, 0.83:
TAA A14T G15T T59G

From the supplement of paper PMC6445147
